Publication PMC3288065
Results are given in words; binding and its absence hold for the method and conditions named. A result given as binding can be weak or reduced; the word gives no strength. For part of these data: Tags and fused reporters may be left off the sequences shown. For part of these data: Binding seen in cells or lysates may run through a third protein.

What was measured:
ProLabel-TRX (porcine) = target: T1, ProLabel-TRX (porcine) (UniProt P82460); assay: co-IP; transfected HEK293 lysate with anti-TRX polyclonal antibodies and protein G plus/A agarose beads; western blot with anti-GFP monoclonal antibodies for GFP-SzP
T1 sequence: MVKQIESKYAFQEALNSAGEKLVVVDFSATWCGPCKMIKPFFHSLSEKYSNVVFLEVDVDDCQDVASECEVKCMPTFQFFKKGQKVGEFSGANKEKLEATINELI

[1] = target: GFP-SzP fusion protein (Streptococcus equi ssp. zooepidemicus ATCC35246); assay: co-IP; HEK293 co-transfected with pAcGFP1-SzP (or pAcGFP1-C) and pProLabel fusions (or pProLabel-C); lysate with anti-GFP monoclonal antibody and protein G plus/A agarose beads at 4°C; ProLabel chemiluminescence read on the beads
[2] = target: SzP anchored on the surface of viable S. zooepidemicus wild strain ATCC35246 (Streptococcus equi ssp. zooepidemicus ATCC35246); assay: flow cytometry on cells; 5x10^7 CFU/mL viable S. zooepidemicus wild strain or SzP-knockout strain in 2 mg/mL TRX, 30 min, 37°C; rabbit anti-TRX polyclonal antibodies and FITC goat anti-rabbit IgG; only the binder purified

In the case of GFP-SzP fusion protein, the binding (ProLabel-TRX (porcine)) is reported as “binds”.

B1: ProLabel-Transmembrane protein CD9 (protein, UniProt Q8WMQ3 1-226)
chain: MPVKGGTKCIKYLLFGFNFIFWLAGIAVLAIGLWLRFDSQTKSIFEQENNNSSFYTGVYILIGAGALMMVVGFLGCCGAVQESQCMLGLFFGFLLVIFAIEIAAAIWGYSHKDQVIKEVQDFYRDTYNKLKGKDDPQRETLKAIHYALDCCGLMGEVEQLLADICPQRDVLSSLPMKPCPEAIKEVFQNKFHIIGAVGIGIAVVMIFGMIFSMILCCAIRRSREMV
In the case of B1, the binding [1] is reported as “no binding”.

B2: ProLabel-Guanine nucleotide binding protein (G protein), gamma 11 (protein, UniProt A0A8W4FGM1 1-73)
chain: MPALHIEDLPEKEKLKMEVEQLRKEVKLQRQQVSKCSEEIKNYIEERSGEDPLVKGIPEDKNPFKEKGSCIIS
In the case of B2, the binding [1] is reported as “no binding”.

B3: ProLabel-Selenoprotein K (protein, UniProt Q2EN82 1-94)
chain: MVYISNGQALDSRSQSPWRLSFITDFFWGIAEFVVLFFRTLLQQDVKKRRGYGGSSDSRYDDGRGPPGNPPRRMGRINHLRGPNPPPMAGGUGR
In the case of B3, the binding [1] is reported as “no binding”.

B4: ProLabel-TRX (protein, UniProt P82460 1-105)
chain: T1 sequence
B4 was tested, and the binding [1] was “binds”.

B5: His-TRX (reduced form in the DTT-treated samples) (protein, UniProt P82460 1-105)
chain: T1 sequence
In the case of B5, the binding [2] is reported as “binds”.
